Laboratory results as given in patent US4331661A (The Salk Institute for Biological Studies, priority 1980, dated 1982).
HELM strings list residues between dots; [ac] is acetyl, [am] amide, other brackets name non-standard units.

Assay: general procedure: Boc solid-phase peptide synthesis; chloromethylated resin, methylbenzhydrylamine (MBHA) resin or benzhydrylamine (BHA) resin
Conditions: whole synthesis, scale of the general procedure 5 grams of resin

PEPTIDE1{[ac].H.W.A.V.G.H.L.M.[am]}$$$$V2.0
final purity (method not given): greater than 98%
